Assay results: patent publication US11969433B2, “Compositions and methods for muscle regeneration using prostaglandin E2” (The Board of Trustees of the Leland Stanford Junior …, priority 2016, dated 2024)

Tested on: gastrocnemius (GA) muscle
Experiment: In vivo muscle force after downhill treadmill run, aged mice (Example 1)
Design: species or system mouse
Conditions: aged gastrocnemius week 5 post-exercise
Procedure: Aged mice (18 mo.) were subjected to downhill treadmill run for 2 consecutive weeks. During week 1, mice ran daily for 5 days and rested on days 6 and 7. Two hours after each treadmill run during week 1, each (lateral and medial) gastrocnemius (GA) muscle from both legs of each mouse was injected with a dose of either PBS (vehicle control) or 13 nM dmPGE2 (experimental group). During week 2, mice were subjected to 5 days treadmill run only. The treadmill run was performed using the Exer3/6 (Columbus Instruments). Mice ran for 10 minutes on the treadmill at 20 degrees downhill, starting at a speed of 7 meters/min. After 3 min, the speed was increased by 1 meter/min to a final speed of 14 meter/min. […] Force measurements were on the GA muscles at week 5 based on a protocol published previously^5. Briefly, for each mouse, an incision was made to expose the GA. We severed the calcaneus bone with intact achilles tendon and attached the tendon-bone complex to a 300C-LR force transducer (Aurora Scientific) with a thin metal hook. The muscles and tendons were kept moist by periodic wetting with saline (0.9% sodium chloride) solution. The lower limb was immobilized below the knee by a metal clamp without compromising the blood supply to the leg. The mouse was under inhaled anesthetic (2% isofluorane) during the entire force measuring procedure and body temperature was maintained by a heat lamp. In all measurements, we used 0.1-ms pulses at a predetermined supramaximal stimulation voltage. The GA muscles were stimulated via the proximal sciatic nerve using a bipolar electrical stimulation cuff delivering a constant current of 2 mA (square pulse width 0.1 ms). GA muscles were stimulated with a single 0.1-ms pulse for twitch force measurements, and a train of 150 Hz for 0.3 s pulses for tetanic force measurements. We performed five twitch and then five tetanic measurements on each muscle, with 2-3 min recovery between each measurement with n=5 mice per group. Data were collected with a PCI-6251 acquisition card (National Instruments) and analyzed in Matlab. We calculated specific force values by normalizing the force measurements by the muscle physiological cross-sectional areas (PCSAs), which were similar between the control and the experimental PGE2 treated group (Table 2). PCSA (measured in mm^2) was calculated according to the following equation^12: PCSA (mm^2)=[mass (g)×Cos θ]÷[ρ(g/mm^3)×fiber length (mm)], where θ is pennation angle of the fiber and ρ is muscle density (0.001056 g/mm^3). Statistical Analyses

With `CCCCC(C)(C)[C@H](O)/C=C/[C@H]1[C@H](O)CC(=O)[C@@H]1C/C=C\CCCC(=O)O` [dmPGE2, 16,16-dimethyl prostaglandin E2] the “PCSA (medial + lateral), average” value (group average) was 25.63 mm^2, the “Cosine(θ)” value (single leg of single mouse) was 0.98 (3×) and 0.96 and 0.91 and 0.97 (3×) and 0.94 and the “GA Mass” value (single leg of single mouse) was 0.25 g and 0.16 g (3×) and 0.14 g (3×) and 0.17 g (2×). For the same compound, the “Pennation angle θ” value (single leg of single mouse) was 12 degree (2×) and 16 degree and 14 degree (2×) and 13 degree (2×) and 11 degree (2×).

“And” between values parts separate entries of the source, which are not always exact repeats. Equal values may be shown once.
